Twelve molecules from PMC2847535 can be followed below.

Protein sequences, listed by entry. Tags and fused reporters are not part of them.
UniProt Q9NQT4: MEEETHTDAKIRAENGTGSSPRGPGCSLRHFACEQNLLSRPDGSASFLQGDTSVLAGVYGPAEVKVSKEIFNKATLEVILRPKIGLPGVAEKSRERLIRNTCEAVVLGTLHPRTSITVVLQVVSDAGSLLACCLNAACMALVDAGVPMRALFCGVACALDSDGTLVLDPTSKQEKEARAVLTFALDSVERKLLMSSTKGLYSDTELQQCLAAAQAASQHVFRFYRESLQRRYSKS

Where a chain is given by its changes, count along the chain named. Results are given in words; binding and its absence hold for the method and conditions named. Binding seen in cells or lysates may run through a third protein. Some binding calls cover weakened binding; strength is not graded here. Where a sequence is shown, tags or fusion partners need not be part of it.

B1: myc-tagged CZAP429 (amino acids 429-776 of ZAP) (domain or fragment, UniProt Q8K3Y6 429-776)
chain: QDLQTTGRITDSGQDKAFLQNKYGGNPVWASASTHNAPNGSSQIMDETPNVSKSSTSGFAIKPAIAGGKEAVYSGVQSPRSQVLAVPGEATTPVQSNRLPQSPLSSSSHRAAASGSPGKNSTHTSVSPAIESSRMTSDPDEYLLRYILNPLFRMDNHGPKEICQDHLYKGCQQSHCDRSHFHLPYRWQMFVYTTWRDFQDMESIEQAYCDPHVELILIENHQINFQKMTCDSYPIRRLSTPSYEEKPLSAVFATKWIWYWKNEFNEYIQYGNESPGHTSSDINSAYLESFFQSCPRGVLPFQAGSQKYELSFQGMIQTNIASKTQRHVVRRPVFVSSNDVEQKRRGPE
B2: myc-tagged full-length ZAP mutant Zm3 (protein, UniProt Q8K3Y6 1-776)
chain: MAAAAVCCFITKILCAHGGRMTLEELLGEIRLPEAQLYELLETAGPDRFVLLETGGQAGITRSVVATTRARVCRRKYCQRPCDSLHLCKLNLLGRCHYAQSQRNLCKYSHDVLSEQNFQILKNHELSGLNQEELACLLVQSDPFFLPEICKSYKGEGRKQTCGQPQPCERLHICEHFTRGNCSYLNCLRSHNLMDRKVLTIMREHGLSPDVVQNIQDICNNKHARRNPPGTRAAHPHRRGGAHRDRSKSRDRFLHNSLEFLSPVVSPLGSGPPSPDVTSCKDSLEDVSVDVTQKFKYLGTHDRAQLSPVSSKAAGVQGPSQMRASQEFSEDGNLDDIFSRNRSDSSSSRASAAKVAQRNEAVAMKMGMEVKGKKEAPDIDRVPFLNSYIDGVTMEKASVSGIPGKKFTANDLENLLLLNDTWKNVAKPQDLQTTGRITDSGQDKAFLQNKYGGNPVWASASTHNAPNGSSQIMDETPNVSKSSTSGFAIKPAIAGGKEAVYSGVQSPRSQVLAVPGEATTPVQSNRLPQSPLSSSSHRAAASGSPGKNSTHTSVSPAIESSRMTSDPDEYLLRYILNPLFRMDNHGPKEICQDHLYKGCQQSHCDRSHFHLPYRWQMFVYTTWRDFQDMESIEQAYCDPHVELILIENHQINFQKMTCDSYPIRRLSTPSYEEKPLSAVFATKWIWYWKNEFNEYIQYGNESPGHTSSDINSAYLESFFQSCPRGVLPFQAGSQKYELSFQGMIQTNIASKTQRHVVRRPVFVSSNDVEQKRRGPE
B3: myc-tagged full-length ZAP mutant Zm93 (protein, UniProt Q8K3Y6 1-776)
chain: B2 chain with A3D, A4P, A5G, L93A, G94A, R95A
B4: myc-tagged full-length ZAP mutant Zm63 (protein, UniProt Q8K3Y6 1-776)
chain: B2 chain with A3D, A4P, A5G, S63A, V64A, V65A
B5: myc-tagged full-length ZAP mutant Zm133 (protein, UniProt Q8K3Y6 1-776)
chain: B2 chain with A3D, A4P, A5G, E133A, L134A
B6: myc-tagged full-length ZAP mutant Zm103 (protein, UniProt Q8K3Y6 1-776)
chain: B2 chain with A3D, A4P, A5G, R103A, N104A, L105A
B7: myc-tagged full-length ZAP (wild type) (protein, UniProt Q8K3Y6 1-776)
chain: B2 chain with A3D, A4P, A5G
B8: myc-tagged full-length ZAP mutant Zm23 (protein, UniProt Q8K3Y6 1-776)
chain: B2 chain with A3D, A4P, A5G, L23A, E24A, E25A
B9: myc-tagged full-length ZAP mutant Zm113 (protein, UniProt Q8K3Y6 1-776)
chain: B2 chain with A3D, A4P, A5G, L113A, S114A, E115A
B10: myc-tagged full-length ZAP mutant Zm153 (protein, UniProt Q8K3Y6 1-776)
chain: B2 chain with A3D, A4P, A5G, Y153A, K154A, G155A
B11: myc-tagged full-length ZAP mutant Zm53 (protein, UniProt Q8K3Y6 1-776)
chain: B2 chain with A3D, A4P, A5G, E53A, T54A, G55A
B12: myc-tagged full-length ZAP mutant Zm13 (protein, UniProt Q8K3Y6 1-776)
chain: B2 chain with A3D, A4P, A5G, I13A, L14A, C15A

This assay has as its target endogenous exosome component Rrp46 (human (endogenous in 293TRex)) (UniProt Q9NQT4). In words: co-IP; endogenous Rrp46 immunoprecipitated with rabbit anti-hRrp46p and proteinG plus-agarose from lysates of cells expressing myc-tagged ZAP proteins; lysis buffer B (30 mM Hepes pH7.6, 100 mM NaCl, 0.5% NP-40) with 100 ug/ml RNase A; 4°C, 2 h; Western blot with anti-myc; pre-immune serum as control.
For B1, the binding result is reported as “no binding”.
For B2 the value was “binds”; for B3, “binds”; for B4, “binds”.
For B5 the value was “binds”; for B6, “binds”.
Turning to B7, the binding result is “binds”.
For B8 the value was “binds”; for B9, “binds”; for B10, “binds”.
On to B11, for which the binding result is recorded as “binds”.
For B12 the value was “binds”.
